PubChem BioAssay AID1259308, NCATS – 2017

Test: 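Candidate targets for better recombinant protein yield in mammalian cells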 (primary screen)
Cells: human HEK293 embryonic kidney cells stably expressing firefly luciferase (HEK-CMV-Luc2-Hygro)
Reagents: single siRNA against human genes, 0.8 pmol siRNA per well
Duration: 72 h
Measurement: 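Reporter luminescence and viable-cell signal on separate replicate plates, given as percent of non-targeting control and median/MAD z-scores, plus per-cell luciferase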
Reading the numbers: total luciferase, z-score and total luciferase, % of control: higher = more reporter protein produced
Hit rule: 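Active when the median/MAD z-score for overall luciferase is greater than 3; a gene was taken forward for validation with new siRNAs if at least two of its three siRNAs passed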
Calls: active = raised luciferase; inactive = no rise
This is one part, drawn at random, of about 59,000 deposited reagents. About 1,510 of them (2.6%) count as active. 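Calls use total luciferase alone and ignore viability, so some active siRNAs may act by altering cell number.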 Unmarked entries are inactive. The numbers tell different reagents against one gene apart. Not all columns of the deposit are shown. No sequences are given here.

SLC25A38P1 (SLC25A38 pseudogene 1) #1 — total luciferase, z-score = 0.353; total luciferase, % of control = 88.9
SLC25A38P1 (SLC25A38 pseudogene 1) #2 — total luciferase, z-score = 3.25 (active); total luciferase, % of control = 147
SLC25A38P1 (SLC25A38 pseudogene 1) #3 — total luciferase, z-score = -1.64; total luciferase, % of control = 49.3
CCT8 (chaperonin containing TCP1 subunit 8) #1 — total luciferase, z-score = 1.86; total luciferase, % of control = 119
CCT8 (chaperonin containing TCP1 subunit 8) #2 — total luciferase, z-score = 1.66; total luciferase, % of control = 115
CCT8 (chaperonin containing TCP1 subunit 8) #3 — total luciferase, z-score = 0.879; total luciferase, % of control = 99.4

2 entries already listed, ordered by “total luciferase, z-score”, highest first.
CCT8 (chaperonin containing TCP1 subunit 8) #1 — total luciferase, z-score = 1.86; total luciferase, % of control = 119
CCT8 (chaperonin containing TCP1 subunit 8) #2 — total luciferase, z-score = 1.66; total luciferase, % of control = 115

Additional reagents follow.
PLIN1 (perilipin 1) #1 — total luciferase, z-score = 0.296; total luciferase, % of control = 87.8
PLIN1 (perilipin 1) #2 — total luciferase, z-score = 0.504; total luciferase, % of control = 91.9
PLIN1 (perilipin 1) #3 — total luciferase, z-score = 0.644; total luciferase, % of control = 94.7
ZC3H18 (zinc finger CCCH-type containing 18) #1 — total luciferase, z-score = -0.0577; total luciferase, % of control = 80.7
ZC3H18 (zinc finger CCCH-type containing 18) #2 — total luciferase, z-score = 1.72; total luciferase, % of control = 116
ZC3H18 (zinc finger CCCH-type containing 18) #3 — total luciferase, z-score = -0.235; total luciferase, % of control = 77.2
